Laboratory results published in PubChem BioAssay AID493014 (National Center for Advancing Translational Sciences (NCATS), 2011).
Some of the results follow. Further columns of the screen follow, without active or inactive calls. The list favours compounds with an active or inconclusive main result. Words in brackets tell the shape of the fitted curve; partial curves, single points and poor fits give uncertain potencies.

Assay: qHTS Assay to Find Inhibitors of Chronic Active B-Cell Receptor Signaling
Conditions: ABC-DLBCL IkBa-CBG/CBR reporter, luminescence ratio (green luciferase fused to IkBa over red control in TMD8 lymphoma cells), 4 h; measured here: CBR red luminescence, cell number
In short: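 Doxycycline induced both beetle luciferases in TMD8 lymphoma cells; IKK-driven degradation limits the IkappaBalpha-fused green signal, while red luminescence normalises for cell number and nonspecific effects. Compounds tested up to 46 uM, 4 hrs.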

Structure (SMILES)	AC50
COc1ccc(OC)c(CNc2ccc3c(c2)CCC3)c1	11.2 µM [rising, single point]
NC(=O)CC(NC(=O)c1cccc(Br)c1)c1ccc(N2CCCCCC2)c([N+](=O)[O-])c1 (stereo not drawn)	22.4 µM [falling, single point]
CCCCOc1ccc(CSCCNC(=S)Nc2ccccc2)cc1	7.31 µM [rising, partial curve]
CCOc1ccc(NC(=O)c2cc(S(=O)(=O)N3CCc4ccccc43)ccc2F)cc1	4.47 µM [falling, full curve, poor fit]
COc1ccccc1Nc1n[nH]c(=S)s1	10 µM [falling, partial curve, poor fit]
O=C(Nc1ccc2c(c1)OCCO2)c1ccc2nccnc2c1	11.2 µM [falling, partial curve]
CC(C)c1ccc(NC(=O)c2cc(S(=O)(=O)N(C)C3CCCCC3)ccc2F)cc1	14.1 µM [rising, partial curve, poor fit]
COc1cccc(C(=O)N/N=c2\sc3ccccc3n2C)c1	6.51 µM [falling, partial curve]
CCSc1nnc(C)c2ccccc12	1.12 µM [rising, full curve, poor fit]
Cc1ccc(NC(=O)C(C)Sc2nnc(C3CC3)n2C2CC2)cc1S(=O)(=O)N1CCOCC1 (stereo not drawn)	1.64 µM [rising, partial curve, poor fit]
Cc1sc2nc(SCCO)n(-c3ccccc3)c(=O)c2c1C	20 µM [rising, partial curve, poor fit]
O=C(N/N=C/c1c(F)cccc1Cl)C1CC1	15.8 µM [rising, single point]
COc1ccc(N(C(=O)c2ccncc2)S(=O)(=O)c2ccc3c4c(cccc24)C(=O)N3C)cc1	2 µM [falling, full curve]
CCN(CC)CCNC(=O)CCCCCn1c(=O)[nH]c2cc(C(=O)OC)ccc2c1=O	11.6 µM [falling, partial curve, poor fit]
CC(C)Cc1csc(NC(=O)c2ccc(Cl)cc2)c1C(=O)O	0.184 µM [falling, full curve, poor fit]
Cc1ccc(S(=O)(=O)CC(=O)N2CCCCCC2)cc1	7.31 µM [rising, full curve, poor fit]
O=C1Nc2ccc([N+](=O)[O-])cc2OC1CCN1CCN(Cc2ccc3c(c2)OCO3)CC1 (stereo not drawn)	11.2 µM [falling, single point]
COc1ccc(Oc2nc(-c3ccccn3)nc3ccccc23)cc1	35.5 µM [falling, single point]
O=C(CCSc1nc2ccccc2o1)N1CCOCC1	13 µM [falling, partial curve]
CCC(=O)Nc1ccc(S(=O)(=O)N2CCC(c3nc4ccccc4[nH]3)CC2)cc1	8.2 µM [rising, full curve, poor fit]
O=C(N/N=C/C1CCCCC1)c1cc(Cl)ccc1O	0.631 µM [falling, full curve]
O=C(NCc1ccc(F)cc1)c1noc2c1CCCC2	2.82 µM [rising, full curve, poor fit]

Structure (SMILES)	AC50
CCOC(=O)NC(=O)/C(C#N)=N/Nc1c(F)cccc1F	20.6 µM [rising, single point]
COc1cccc2c1C(=O)C=C(C)C2=O	29.1 µM [falling, single point]
CCOC(=O)c1sc(=S)n(C)c1NC(=O)c1ccc(OC)cc1	25.1 µM [rising, single point]
CS(=O)(=O)CCSc1ncccc1C(=O)NCc1cccs1	35.5 µM [falling, single point]
O=C(Nc1ccc(O)cc1)c1ccc2c(c1)C(=O)N(Cc1ccco1)C2=O	0.82 µM [rising, partial curve, poor fit]
CCN(C(=O)C1=COCCO1)c1nc2c(C)cccc2s1	25.9 µM [rising, partial curve]
CN(CC(=O)NCCC1=CCCCC1)S(=O)(=O)c1ccc2c(c1)CCC(=O)N2	4.11 µM [rising, full curve, poor fit]
COc1ccc(S(=O)(=O)N(C)C)cc1NC(=O)c1ccc2c(c1)NC(=O)C(C)S2 (stereo not drawn)	2.91 µM [rising, single point]
Cc1cccc(CCN2C(Nc3ccccc3)=NC[C@@H]2CC(C)C)c1	16.4 µM [falling, partial curve, poor fit]
O=C(Nc1ccccc1)C(Cc1cccs1)c1nn[nH]n1 (stereo not drawn)	29.1 µM [falling, single point]
CCOC(=O)N1CCN(C(=O)CCN2C(=O)/C(=C\c3ccccc3OC)SC2=S)CC1	14.1 µM [falling, partial curve]
CCOC(=O)Cc1cn(C(=O)OC(C)(C)C)c2ccccc12	1.03 µM [rising, full curve, poor fit]
O=C(Nc1ccc2c(c1)OCO2)OCc1ccccc1	15.8 µM [falling, single point]
CCCOc1nc(SCCC)nc2c1cnn2-c1ccccc1	7.94 µM [rising, partial curve, poor fit]
COc1ccc(N2CCN(CCCNC(=O)Nc3ccccc3)CC2)cc1	23.1 µM [rising, partial curve]
CC(C)(C)C1CCc2sc(-c3nnc(CCl)o3)cc2C1 (stereo not drawn)	35.5 µM [falling, single point]
Nc1c(C=C2C=CC(=O)C=C2)c(=O)nc2snc(SCc3ccccc3)n12	5.62 µM [rising, single point]
Clc1ccc(CNCCC2=CCCCC2)cc1	29.1 µM [rising, single point]
CC(=O)c1ccc(NC(=O)Nc2cccc(Cl)c2)cc1	0.00461 µM [rising, full curve, poor fit]
N#CCC(=O)Nc1sc2c(c1C(N)=O)CCCC2	32.6 µM [falling, single point]
COc1ccc(NC(=O)c2csc(C)c2)cc1OC	0.112 µM [rising, full curve]

For reference, part of the list above:
Structure (SMILES)	AC50
CCOC(=O)N1CCN(C(=O)CCN2C(=O)/C(=C\c3ccccc3OC)SC2=S)CC1	14.1 µM [falling, partial curve]
CCOC(=O)Cc1cn(C(=O)OC(C)(C)C)c2ccccc12	1.03 µM [rising, full curve, poor fit]
O=C(Nc1ccc2c(c1)OCO2)OCc1ccccc1	15.8 µM [falling, single point]
